# Plain letter strings leave the end groups untold.
# Experiment: peptide synthesis
# Conditions: whole synthesis
sequence,measurement,value
EVSGLEQLESIINFEKLTEWTSSNVME,difficulty met,the naked Ova peptide (middle panel) had a heterogeneous signal

# From patent publication US11065317B2 (Agenus Inc., priority 2018, dated 2021)
